# Primary screen of a compound library

From ChEMBL document CHEMBL3988442, “University of Dundee, Small-Polar-MMV Screening Library” (2021).

The filed quantity is “Percent Effect” (%).
How 0% and 100% were set is not recorded. Most values in the screen are low, and negative values occur.
Compounds were drawn at random from those tested, without regard to their results.
Two or more numbers in one place are separate tests of the same structure; such repeats can differ widely.

Mtb cholesterol medium: 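Phenotypic screen: M. tuberculosis growth, cholesterol and DPPC medium, 4 days; the read-out is not stated. Concentration: 50 µM. Higher reads as more growth inhibition (inferred: compounds with an IC50 in retests scored well above the rest). Of about 69,000 compounds tested this way, about 370 (0.54%) reached 50% or more in at least one test.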
Mtb glucose medium: 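Phenotypic screen: M. tuberculosis growth, glucose 7H9 medium, 3 days; the read-out is not stated. Compounds at 50 µM. Higher reads as more growth inhibition (inferred: compounds with an IC50 in retests scored well above the rest). About 69,000 compounds were tested under these conditions; 1.1% (about 760) showed 50% or more at least once.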

structure | Mtb cholesterol medium | Mtb glucose medium
N#Cc1ccc(CN(CC(N)=O)C2CCCC2)c(Br)c1 | 22.91% | 7.355%
CCC[C@@H]1CN(Cc2c[nH]c(CC3CCCC3)n2)C[C@H]1C(=O)O | 8.235% | 2.755%
[H][C@]12CN(c3cnccn3)C[C@@]1(C(=O)O)CN(C1CCCC1)C2 | -0.5522% | 29.43%
CN(C)CCN1C(=O)CCC12CCCN(C(=O)c1ccncc1F)C2.O=C(O)C(F)(F)F (centres undefined) | -11.97% | -11.88%
c1cncc(CCc2nc(C3CC3)nn2-c2ccc3c(c2)OCCO3)c1 | -31.47% | -93.12%
CC(C)Nc1nc(N2CCCC2)nc2c1CCN(S(C)(=O)=O)CC2.O=C(O)C(F)(F)F.O=C(O)C(F)(F)F | -13.15% | 6.845%
Cc1cnn(CC2CCCN2C(=O)c2cn(-c3ccccc3)nc2C)c1 (centres undefined) | -1.486% | 15.81%
CC(C)Cn1ncc(C(=O)NS(=O)(=O)C2CCCC2)c1C1CC1 | -14.11% | -9.203%
Cc1noc(C(C)N2CCN(CC(=O)N3CCCC3)CC2)n1 (centres undefined) | 13.19% | 10.9%
Cc1noc(C2CCCN(C(=O)c3ccc(Br)o3)C2)n1 (centres undefined) | 18.29% | 28.45%
COC(=O)N1CCN(CCCc2nnnn2-c2ccccc2)CC1 | -21.61% | -1.75% & -3.808%
Cc1ncn(CCNC(=O)Nc2ccc(F)c(Cl)c2)c(=O)c1C | 11.42% | 31.12%
O=C(NCc1nnc2n1CCC2)c1cn(-c2ccccc2Br)nn1 | -10.49% | -8.256%
O=S1(=O)NCC2(CCCN(Cc3cccnc3)C2)Oc2ncccc21 (centres undefined) | -28.69% | -26.92%
Cc1ccc2c(c1)nc1n2[C@@H](CNC(=O)c2ccccn2)COC1 | -15.81% | -3.865% & -18.81%
Cc1noc(C2CCN(C(C)c3nc(C(C)(C)C)no3)CC2)n1 (centres undefined) | -2.092% | -15.53% & 7.077%
FC(F)(F)Cn1ccnc1CNCCn1cccn1 | 3.753% | -3.319%
COc1cccc(N2Cc3nc(=O)n(Cc4cccc(F)c4)n3C2=O)c1 | -14.07% | -2.779%
O=C(O)C(F)(F)F.[H][C@]12C[C@@H](CN(C)C)N(C(C)=O)[C@@]1([H])CCN(C(=O)c1cccn1C)C2 | -17.52% | -28.86%
Cc1c(C2CC2)n[nH]c1NC(=O)C1CCCN(C(=O)NCC(C)C)C1 (centres undefined) | -2.283% | -17.77%
CS(=O)(=O)N1CCN(c2ccnc(N3CCCC3)n2)CC1 | -2.105% | 0.4059% & 5.158%
CN(CC(=O)NS(=O)(=O)c1ccsc1)Cc1ccccc1 | -2.011% | -2.622% & -13.38%
COc1ccccc1C1(CNc2ccc(C(=O)N(C)C)cn2)CC1 | -25.94% | -1.178%
O=C(O)C(F)(F)F.[H][C@@]12CCN(Cc3ccccc3F)C[C@]1(COC)CCO2 | 1.801% | 16.1%
Cc1cc(NC(=O)NCc2ccccc2OC(F)F)n(C)n1 | -21.14% | -9.658%
COc1cccc(CC2CCCN2CCCC#N)c1 (centres undefined) | -1.68% | 17.62%
CC(C)c1cc(NC(=O)CN2CCc3nn(C)c(=O)cc3C2)on1 | -20.52% | -4.27%
Cc1cn(CCn2ccnc2-c2sccc2C)nn1 | 6.38% | 14.89%
CCn1nccc1CNC(=O)C1CC1 | -24.21% | -14.07%
CN(Cc1ccco1)C(=O)C1CSCN1C(=O)C1CCC1 (centres undefined) | -37.84% | -0.414%
CN(C)C(=O)c1cc2c(nc1NCC1CC1)CCNCC2 | -37.26% | -37.45%
CCC(NS(C)(=O)=O)c1ccccc1OC (centres undefined) | -2.668% | 3.757% & -5.376%
COc1c(NC(=O)N(C)CCOc2ccccc2)c(C)nn1C | -12.17% | 0.2563% & 14.22%
COc1ccccc1C(=O)Nc1ccc(OC2CCN(C)CC2)cc1 | 14.9% & 18.28% | 28.07%
COc1ccc(NC(=O)c2cnc(N3CCN(C)CC3)nc2C)cc1 | -7.027% | 11.21%
CC(CNCc1ccc(Cl)c(Cl)c1)Oc1ccccn1.Cl (centres undefined) | 42.51% | 39.23%
CC(C)C(Sc1nnnn1-c1ccccc1)C(=O)NCc1cccnc1 (centres undefined) | -27.2% | -19.31%

Repeated from the top, 4 entries:

{"structure": "N#Cc1ccc(CN(CC(N)=O)C2CCCC2)c(Br)c1", "Mtb cholesterol medium": 22.91, "Mtb glucose medium": 7.355}
{"structure": "CCC[C@@H]1CN(Cc2c[nH]c(CC3CCCC3)n2)C[C@H]1C(=O)O", "Mtb cholesterol medium": 8.235, "Mtb glucose medium": 2.755}
{"structure": "[H][C@]12CN(c3cnccn3)C[C@@]1(C(=O)O)CN(C1CCCC1)C2", "Mtb cholesterol medium": -0.5522, "Mtb glucose medium": 29.43}
{"structure": "CN(C)CCN1C(=O)CCC12CCCN(C(=O)c1ccncc1F)C2.O=C(O)C(F)(F)F", "stereo": "centres undefined", "Mtb cholesterol medium": -11.97, "Mtb glucose medium": -11.88}